# Test results as given in PubChem BioAssay AID1117319 (Southern Research Institute, 2015).
# Amino acid sequences for entries named in this document (tags omitted). A change or cut given only in a name is not applied to a line headed by its entry.
# UniProt P69720: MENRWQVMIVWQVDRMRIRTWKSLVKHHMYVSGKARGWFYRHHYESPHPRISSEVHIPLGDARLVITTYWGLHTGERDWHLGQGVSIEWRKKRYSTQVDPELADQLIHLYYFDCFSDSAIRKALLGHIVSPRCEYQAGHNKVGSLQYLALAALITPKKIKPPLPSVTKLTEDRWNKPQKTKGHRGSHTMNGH
# UniProt P69721: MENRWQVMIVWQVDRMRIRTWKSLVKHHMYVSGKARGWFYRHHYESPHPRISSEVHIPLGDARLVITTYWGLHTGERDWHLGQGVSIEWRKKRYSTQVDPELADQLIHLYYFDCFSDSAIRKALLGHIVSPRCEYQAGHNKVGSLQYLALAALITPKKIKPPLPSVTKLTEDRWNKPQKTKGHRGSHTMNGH
# UniProt P69722: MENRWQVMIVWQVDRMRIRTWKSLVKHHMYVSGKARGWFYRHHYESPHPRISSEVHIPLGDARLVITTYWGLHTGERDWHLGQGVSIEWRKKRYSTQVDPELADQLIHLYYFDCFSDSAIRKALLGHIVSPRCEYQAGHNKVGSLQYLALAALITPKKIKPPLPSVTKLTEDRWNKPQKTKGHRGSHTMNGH
# UniProt P69723: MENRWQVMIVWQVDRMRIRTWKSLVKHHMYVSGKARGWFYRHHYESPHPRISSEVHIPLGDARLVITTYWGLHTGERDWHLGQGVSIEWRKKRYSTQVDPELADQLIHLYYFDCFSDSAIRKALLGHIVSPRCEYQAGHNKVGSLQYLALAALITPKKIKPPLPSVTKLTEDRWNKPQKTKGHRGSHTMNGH
# UniProt Q9HC16: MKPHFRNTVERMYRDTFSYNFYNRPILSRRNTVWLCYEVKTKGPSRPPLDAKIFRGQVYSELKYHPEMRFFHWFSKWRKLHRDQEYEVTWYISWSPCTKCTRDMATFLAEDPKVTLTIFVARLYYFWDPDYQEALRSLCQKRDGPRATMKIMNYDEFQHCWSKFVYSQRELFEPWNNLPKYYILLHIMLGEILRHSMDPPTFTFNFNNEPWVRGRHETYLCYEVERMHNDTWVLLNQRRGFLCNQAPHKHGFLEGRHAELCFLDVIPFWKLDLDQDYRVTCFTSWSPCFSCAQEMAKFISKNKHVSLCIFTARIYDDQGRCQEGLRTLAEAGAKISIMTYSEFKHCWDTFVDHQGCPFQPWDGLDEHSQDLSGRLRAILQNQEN
# Out of some 260,000 compounds screened, about 1,500 (0.58%) were called active. This list was built around the results that the source calls inconclusive (neither active nor inactive); the mix of calls is not that of the screen.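 Rule for the calls: active = inhibition above a set limit at one or more doses, reproduced on every date tested; inconclusive = results disagree between test dates, or hit never tested in dose response; inactive = the rest.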
# Target: Virion infectivity factor (Human immunodeficiency virus type 1 group M subtype B (isolate BH10)) + Virion infectivity factor (Human immunodeficiency virus type 1 group M subtype B (isolate BRU/LAI)) + Virion infectivity factor (Human immunodeficiency virus type 1 group M subtype B (isolate PCV12)) + Virion infectivity factor (Human immunodeficiency virus type 1 group M subtype B (isolate HXB2)) + DNA dC->dU-editing enzyme APOBEC-3G (Homo sapiens) (UniProt P69720+P69721+P69722+P69723+Q9HC16)
# Test: inhibitors of Vif binding to APOBEC3G peptide, primary screen, biochemical, TR-FRET, GST-Vif 1-94, biotin-A3G peptide, dose response retest (AID 1117319);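 note: Vif residues 1-94 fused to GST binding biotinylated APOBEC3G peptide 110-148; 0% = full assay without inhibitor and 100% = GST in place of GST-Vif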
# Settings: hits give high values
row,Compound,inhibition
1,CC1=NNC(=O)c2ccccc2O1,inconclusive: 55.7%
2,Cc1ccc(N2CCN(/N=C/c3ccccc3[N+](=O)[O-])CC2)cc1,inconclusive: 35%
3,O=C(Nc1cccc(C(=O)N2CCCC2)c1)c1ccccc1,inconclusive: 47.5%
4,CC1=C(C(=O)OC(C)C)C(c2cccs2)NC(=O)N1 (stereo not drawn),inconclusive: 34%
5,CC1=NNC(=O)C1CCC(=O)N/N=C(/C)c1ccc([N+](=O)[O-])cc1 (stereo not drawn),inconclusive: 37.6%
6,O=c1[nH]c2ccc(Cl)cc2c(-c2ccccc2)c1N1CCOCC1,inconclusive: 41.4%
7,Cc1ccc(C)c(S(=O)(=O)Nc2ccccc2C(=O)Nc2cc(C)on2)c1,inconclusive: 33.6%
8,CCc1cc2c(NC(C(=O)O)C(C)C)ncnc2s1 (stereo not drawn),inconclusive: 33%
9,Cc1c(CCO)c(=O)n(-c2ccccc2)n1S(=O)(=O)c1ccc(F)cc1,inconclusive: 51.3%
10,c1nc2sc3c(c2c2nnnn12)CCC3,inconclusive: 56.3%
11,Cc1nn(-c2ccccc2)c(C)c1C1C(C#N)=C(N)Oc2n[nH]c(C)c21 (stereo not drawn),inactive: -0.66%
12,COc1ccc(/C=C(\C#N)C(=O)OCC(=O)NCc2ccccc2)cc1,inconclusive: 53.9%
13,CCc1ccccc1N1CC23C=CC(O2)C(C(=O)OC)C3C1=O (stereo not drawn),inconclusive: 38.9%
14,CCN(CCCNC(=O)CN(C)S(=O)(=O)c1cccc2nsnc12)c1ccccc1,inactive: 20.3%
15,COc1ccc(CNC(=O)COC(=O)c2c[nH]c(=O)[nH]c2=O)cc1OC,inconclusive: 35.1%
16,Cc1ccccc1C(=O)OCCCN=C1NS(=O)(=O)c2ccccc21,inconclusive: 53.9%
17,CCN(CC)C(=O)CSc1nc2cc3c(cc2c(=O)n1Cc1ccc(OC)cc1)OCO3,inconclusive: 60.6%
18,COc1ccc(-n2ncc(S(=O)(=O)c3ccccc3)c2-c2ccc(Cl)cc2)cc1,inconclusive: 55.6%
19,Cc1ccc(/C=C/C(=O)N2CCCC(C(N)=O)C2)o1 (stereo not drawn),inconclusive: 36.7%
20,O=S(=O)(NCCN1CCN(S(=O)(=O)c2ccccc2F)CC1)c1ccccc1F,inactive: 1.35%
21,O=S(=O)(NCCc1ccccc1)c1cccc(S(=O)(=O)N2CCOCC2)c1,inconclusive: 33.7%
22,O=C(Nc1ccccc1)c1cccc(C(F)(F)F)c1,inactive: 0.71%

row,Compound,inhibition
1,COc1ccc(Br)cc1S(=O)(=O)NCc1ccccn1,inconclusive: 41.6%
2,CCOC(=O)c1c(S(=O)(=O)NCC2CCN(Cc3cccc(F)c3)CC2)c(C)n(C)c1C,inactive: -4.42%
3,COc1ccccc1NC(=S)NN1CCN(C)CC1,inactive: -0.89%
4,CCn1c(C)nnc1SCC(=O)Nc1cccc(C(F)(F)F)c1,inactive: -2.71%
5,O=C(Nc1cccc2ccccc12)N1CCN(Cc2ccccc2)CC1,inactive: 20.5%
6,CCc1ccc2[nH]c(=O)c(CN(CC3CCCO3)C(=S)NCc3ccco3)cc2c1 (stereo not drawn),inconclusive: 41%
7,CC1CC(OCC(O)CN2CCOCC2)CC(C)(C)C1 (stereo not drawn),inactive: -2.99%
8,CC(=O)NCCn1c(SCc2ccccc2F)nc2ccccc2c1=O,inactive: -4.55%
9,CCc1ccc(NC(=O)c2cc(CC(C)C)on2)cc1,inconclusive: 49%
10,CCn1c(SCC(=O)Nc2ccccc2F)nc2c(c1=O)SC(C)C2 (stereo not drawn),inconclusive: 38.1%
11,O=C1C2CC=CCC2C(=O)N1c1ccc(NCCc2ccccc2)c([N+](=O)[O-])c1 (stereo not drawn),inconclusive: 47.7%
12,Cc1ccc(S(=O)(=O)c2c(C)cc(C)nc2Oc2cccc(C)c2C)cc1,inconclusive: 35.5%
13,COc1ccc(C(=O)OCC(=O)Nc2ncc([N+](=O)[O-])s2)cc1OC,inactive: 5.33%
14,Cc1c(NC2=C(Cl)C(=O)N(c3ccccc3Cl)C2=O)c(=O)n(-c2ccccc2)n1C,inconclusive: 59.3%
15,COCCSc1ccccc1C(=O)NCC1CCCO1 (stereo not drawn),inconclusive: 37.3%
16,CCCc1cc(=O)[nH]c(SCC(=O)CSc2nc(CCC)cc(=O)[nH]2)n1,inconclusive: 34.7%
17,CCC1OC23CCCCC2C(C#N)(C(=N)O3)C1(C#N)C#N (stereo not drawn),inconclusive: 33.2%
18,CCCSc1nc(C)c(-c2csc(C(C#N)=C3CCCC3)n2)cc1C#N,inconclusive: 54.4%
19,c1ccc(CSCc2cn3ccccc3n2)cc1,inconclusive: 40%
20,Cc1ccc(S(=O)(=O)CCSc2nc(C)cc(C)c2C#N)cc1,inconclusive: 61.7%
21,CCCCOc1ccc(C(=O)N/C(=C\c2cccc([N+](=O)[O-])c2)C(=O)OCCC)cc1,inconclusive: 61.6%
22,Cc1cc(OCC(=O)N(Cc2ccco2)C2CCS(=O)(=O)C2)ccc1Cl (stereo not drawn),inconclusive: 52.5%

row,Compound,inhibition
1,Cn1cccc1Cc1nnc(SCC(=O)Nc2ccccc2)n1-c1ccc(F)cc1,inconclusive: 50%
2,Cc1cccc2cc(/C=C/C(=O)c3ccco3)c(Cl)nc12,inconclusive: 40.9%
3,Cc1oc(-c2ccccc2)cc1C(=O)Nc1cccc(C(=O)O)c1,inconclusive: 46%
4,COCCCN1C(=O)C(=O)/C(=C(/O)c2ccc(OC(C)C)cc2)C1c1cccnc1 (stereo not drawn),inconclusive: 48.6%
5,CC(=O)Nc1ccccc1O,inconclusive: 49.8%
6,COC(=O)c1ccc(C)c(NC(=O)CCSc2ccc(Cl)cc2)c1,inconclusive: 59.5%
7,N=C1S/C(=C\c2cccc3ccccc23)C(=O)N1c1ccc(F)cc1,inactive: -3.83%
8,COc1ccc(C(=O)Nc2nc3ccc(S(C)(=O)=O)cc3s2)cc1,inactive: -53.8%
9,COc1cc(C)c(NC(=O)COc2cccc3c2OC(C)(C)C3)cc1OC,inactive: -1.98%
10,O=C(NNC(=S)NCc1ccccc1)c1ccc(Br)cc1,inconclusive: 39.8%
11,CN(C)CCCn1c(NCc2ccc3c(c2)OCO3)nc2ccccc21,inconclusive: 58.8%
12,O=C(C1CCN(S(=O)(=O)c2cccc3cccnc23)CC1)N1CCCC1,inconclusive: 49%
13,CCOC(=O)c1c(C)[nH]c(NC(=O)N2CCOCC2)c1C,inconclusive: 50.2%
14,Cc1nn(-c2ccccc2)c(C)c1NC(=O)c1cccs1,inconclusive: 49%
15,CC(C)(C)c1ccc(-c2noc(CCC(N)=O)n2)cc1,inconclusive: 33%
16,CC(=O)NCCc1nc2ccccc2n1Cc1cc(C)ccc1C,inconclusive: 54.3%
17,CC(=O)Nc1ccc(S(=O)(=O)Nc2nc3ccccc3nc2Nc2ccccc2)cc1,inconclusive: 35.5%
18,CCC(=O)Nc1cccc(C2=NOC3(C2)C[C@@H](C(N)=O)N(C(=O)CC(c2ccccc2)c2ccccc2)C3)c1 (stereo partly drawn),inactive: 7.06%
19,Cc1ccc(C(C)C)c(OCC(=O)Nc2ccc(N3CCN(S(C)(=O)=O)CC3)cc2)c1,inconclusive: 46.4%
20,CCCNC(=O)NC(=O)COC(=O)c1ccc(S(=O)(=O)N(C)c2ccccc2OC)cc1,inconclusive: 46.1%
21,COc1ccc(C2c3ccc(O)cc3Oc3ncn(CCCO)c(=N)c32)cc1 (stereo not drawn),inconclusive: 56.1%
22,Cc1nn(-c2ccccc2)c(Cl)c1C(=O)NCCCCNC(=O)c1c(C)nn(-c2ccccc2)c1Cl,inconclusive: 42.3%

# Three entries picked at random from those above, as already listed:
row,Compound,inhibition
13,CCOC(=O)c1c(C)[nH]c(NC(=O)N2CCOCC2)c1C,inconclusive: 50.2%
9,COc1cc(C)c(NC(=O)COc2cccc3c2OC(C)(C)C3)cc1OC,inactive: -1.98%
12,O=C(C1CCN(S(=O)(=O)c2cccc3cccnc23)CC1)N1CCCC1,inconclusive: 49%

# Remaining list, next part

row,Compound,inhibition
1,O=C1c2nc3cc(-c4ccco4)[nH]n3c(=O)c2CN1Cc1ccccc1,inconclusive: 58.3%
2,Cn1cccc1/C=C1\SC(=O)N(CC(=O)Nc2ccc(F)cc2)C1=O,inconclusive: 37.7%
3,N#Cc1ccc(/C=N/NC(=S)Nc2ccc(S(=O)(=O)N3CCOCC3)cc2)cc1,inactive: 27.6%
4,O=C(O)CCc1n[nH]c(=S)[nH]c1=O,inconclusive: 29.3%
5,Cc1cnn(-c2cc(N/N=C/c3ccccc3Cl)ncn2)c1,inconclusive: 34.3%
6,Cc1csc(NC(=O)Cc2ccccc2[N+](=O)[O-])n1,inactive: -11%
7,CC(C)=CC(=O)NCc1c(Cl)cccc1-n1cccc1,inactive: -7.14%
8,COc1ccc(NC(=O)CSc2nnc(Cc3cccn3C)n2-c2ccc(C)cc2)cc1OC,inconclusive: 56.8%
9,CC1CCCN(C(=O)c2ccc(COc3ccccc3Br)cc2)C1 (stereo not drawn),inconclusive: 33%
10,COc1ccccc1NC(=O)c1sc2nc(-c3ccco3)ccc2c1N,inconclusive: 42%
11,O=C(CSc1oc(-c2ccco2)nc1S(=O)(=O)c1ccc(F)cc1)NCC1CCCO1 (stereo not drawn),inconclusive: 42.7%
12,C/C=C/COC(=O)c1[nH]c2c(c1C)C(=O)CC(c1ccco1)C2 (stereo not drawn),inconclusive: 32.6%
13,CCOc1ccc(NC(=O)C2CCC(CNc3c(N4CCC(C)CC4)c(=O)c3=O)CC2)cc1 (stereo not drawn),inconclusive: 60.9%
14,COC(=O)C1=C(COc2ccc(C=O)cc2OC)NC(=O)NC1c1cc(C)ccc1C (stereo not drawn),inconclusive: 49.2%
15,O=S(=O)(c1cccc2nsnc12)N1CCN(c2ccccc2F)CC1,inconclusive: 60.2%
16,COc1cccc(Nc2nc(-c3cccc(N4C(=O)c5ccccc5C4=O)c3)cs2)c1,inconclusive: 33.5%
17,O=C(O)c1ccc(-c2ccc(/C=C3\NC(=O)N(Cc4ccc(Cl)cc4)C3=O)o2)cc1Cl,inconclusive: 54.5%
18,CCOc1ccc(S(=O)(=O)Nc2nc3ccccc3nc2N2CCN(C)CC2)cc1,inconclusive: 50.3%
19,O=C(CSc1nc(-c2ccco2)cc(C(F)(F)F)n1)Nc1ccc(C(=O)N2CCCCC2)cc1,inconclusive: 36.4%
20,O=C(COC(=O)CCC1CCCC1)Nc1nc2c(F)c(F)c(F)cc2s1,inconclusive: 49.9%
21,O=C(Nc1nc2ccccc2s1)c1cccc(S(=O)(=O)N2CCc3ccccc32)c1,inconclusive: 37.5%
22,CC1CCN(C(=O)c2ccc3c(c2NCCO)C(=O)c2ccccc2C3=O)CC1,inconclusive: 43.1%

# Two of the compounds above, bar-delimited:
row | Compound | inhibition
11 | CN(C)CCCn1c(NCc2ccc3c(c2)OCO3)nc2ccccc21 | inconclusive: 58.8%
21 | O=C(Nc1nc2ccccc2s1)c1cccc(S(=O)(=O)N2CCc3ccccc32)c1 | inconclusive: 37.5%
